One molecule from publication PMC3197605, “Expression, Purification and Characterization of Arginase from Helicobacter pylori in Its Apo Form” (PLoS ONE, 2011) can be followed below.

The target in this assay is Helicobacter pylori arginase RocF, apo form (Helicobacter pylori strain 26695) (UniProt O25949). Nature of the assay: SEC; Superdex 200 10/300GL, 20 mM Tris-HCl pH 7.5, 150 mM NaCl; oligomeric state from the position of the peak; both purified. Background: Size exclusion chromatography separates by hydrodynamic size, large species first.

No constants are given. Whether binding was seen depends on the method and setting.

B1: Helicobacter pylori arginase RocF, apo form (enzyme, UniProt O25949 1-322)
chain: MILVGLEAELGASKRGTDKGVRRLREALSATHGDVIKGMQTITQERCVLYKEFRYAKNFEDYYLFCKENLIPCMKEVFEKKEFPLILSSEHANMFGIFQAFRSVHKDKKIGILYLDAHADIHTAYDSDSKHIHGMPLGMVLNRVRSGFNRMSESEEKAWQKLCSLGLEKGGLEIDPKCLVYFGVRSTEQSERDVIRELQIPLFSVDAIRENMQEVVQKTKESLKAVDIIYLSLDLDIMDGKLFTSTGVRENNGLSFDELKQLLGLLLESFKDRLKAVEVTEYNPTVSIKHNNEEEKQVLEILDLIINSCKIKDKKHSFARSY
Turning to B1, the binding entry is given as “no binding”.
